The test concerns the target zebrafish Fam20C ortholog drFam20C (residues 124-560), untagged (Danio rerio). The test is described as follows: crystal structure; Fam20A-drFam20C complex, formed with 0.25 mM ATP and purified by size exclusion; crystals at 20 °C in 11% 2-propanol, 0.1 M sodium citrate tribasic pH 5.0, 8% PEG 10,000; both purified. (In gel filtration, larger molecules generally elute earlier.)

These are yes or no findings as the source states them, for the method shown. Binding can be weak; no strength is given. Tags and fused reporters may be left off the sequences shown.

B1: human Fam20A (residues 69-529), untagged (domain or fragment, UniProt Q96MK3 69-529, looked up)
chain: HNFSRTEPRTEPAGGSHSGSSSKLQALFAHPLYNVPEEPPLLGAEDSLLASQEALRYYRRKVARWNRRHKMYREQMNLTSLDPPLQLRLEASWVQFHLGINRHGLYSRSSPVVSKLLQDMRHFPTISADYSQDEKALLGACDCTQIVKPSGVHLKLVLRFSDFGKAMFKPMRQQRDEETPVDFFYFIDFQRHNAEIAAFHLDRILDFRRVPPTVGRIVNVTKEILEVTKNEILQSVFFVSPASNVCFFAKCPYMCKTEYAVCGNPHLLEGSLSAFLPSLNLAPRLSVPNPWIRSYTLAGKEEWEVNPLYCDTVKQIYPYNNSQRLLNVIDMAIFDFLIGNMDRHHYEMFTKFGDDGFLIHLDNARGFGRHSHDEISILSPLSQCCMIKKKTLLHLQLLAQADYRLSDVMRESLLEDQLSPVLTEPHLLALDRRLQTILRTVEGCIVAHGQQSVIVDGPVEQ
notes: human Fam20A, pseudokinase, residues 69-529; Crystallised and kept with 0.25 mM ATP; also called hsFam20A; source: High Five insect cells (baculovirus), conditioned medium, purified (Ni-NTA, TEV digestion, Resource Q, size exclusion); not shown: His6, N-terminal, cleaved; MBP, N-terminal, cleaved
Regarding B1, the binding result is listed as “binds”.

Source of the values: article PMC5865150, “Structure and evolution of the Fam20 kinases” (Nature Communications, 2018).
